The list shows a part of the results.
Columns and labels:
Assay in all cases: glycan array binding signal (z-score within array); higher = stronger binding
Conditions in all cases: glycan notation: IUPAC condensed, linker removed
[1] = target: Fuc(a1-2)Gal(b1-4)GlcNAc(b1-3)Gal(b1-4)GlcNAc(b1-2)Man(a1-3)[Fuc(a1-2)Gal(b1-4)GlcNAc(b1-3)Gal(b1-4)GlcNAc(b1-2)Man(a1-6)]Man(b1-4)GlcNAc(b1-4)GlcNAc
Method in brief: (§1)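 Arrays were curated from the Consortium for Functional Glycomics database, 3228 in total, and kept only where the protein sequence was available. Binding is expressed as a within-array Z-score. This score was averaged across arrays of the same protein sequence at different concentrations or buffers and across linkers, and negative values can be read as non-binding.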

[2] = target: Fuc(a1-2)Gal(b1-4)GlcNAc(b1-3)Gal(b1-4)GlcNAc(b1-3)Gal(b1-4)GlcNAc
Method in brief: as §1

[3] = target: Fuc(a1-2)Gal(b1-4)GlcNAc(b1-3)GalNAc
Method in brief: as §1

[4] = target: Fuc(a1-2)Gal(b1-4)GlcNAc(b1-3)[Fuc(a1-2)Gal(b1-4)GlcNAc(b1-6)]GalNAc
Method in brief: as §1

[5] = target: Fuc(a1-2)Gal(b1-4)GlcNAc(b1-3)[Fuc(a1-3)[Gal(b1-4)]GlcNAc(b1-6)]Gal(b1-4)Glc
Method in brief: as §1

[6] = target: Fuc(a1-2)Gal(b1-4)GlcNAc(b1-6)GalNAc
Method in brief: as §1

[7] = target: Fuc(a1-2)Gal(b1-4)GlcNAc6S
Method in brief: as §1

[8] = target: Fuc(a1-2)Gal(b1-4)[Fuc(a1-3)]GlcNAc
Method in brief: as §1

[9] = target: Fuc(a1-2)Gal(b1-4)[Fuc(a1-3)]GlcNAc(b1-2)Man(a1-3)[Fuc(a1-2)Gal(b1-4)[Fuc(a1-3)]GlcNAc(b1-2)Man(a1-6)]Man(b1-4)GlcNAc(b1-4)[Fuc(a1-6)]GlcNAc
Method in brief: as §1

[10] = target: Fuc(a1-2)Gal(b1-4)[Fuc(a1-3)]GlcNAc(b1-2)[Fuc(a1-2)Gal(b1-4)[Fuc(a1-3)]GlcNAc(b1-4)]Man(a1-3)[Fuc(a1-2)Gal(b1-4)[Fuc(a1-3)]GlcNAc(b1-2)Man(a1-6)]Man(b1-4)GlcNAc(b1-4)GlcNAc
Method in brief: as §1

[11] = target: Fuc(a1-2)Gal(b1-4)[Fuc(a1-3)]GlcNAc(b1-3)Gal(b1-4)[Fuc(a1-3)]GlcNAc
Method in brief: as §1

[12] = target: Fuc(a1-2)Gal(b1-4)[Fuc(a1-3)]GlcNAc(b1-3)Gal(b1-4)[Fuc(a1-3)]GlcNAc(b1-3)Gal(b1-4)[Fuc(a1-3)]GlcNAc
Method in brief: as §1

[13] = target: Fuc(a1-2)Gal(b1-4)[Fuc(a1-3)]GlcNAc(b1-3)GalNAc
Method in brief: as §1

[14] = target: Fuc(a1-2)Gal(b1-4)[Fuc(a1-3)]GlcNAc(b1-3)[Neu5Ac(a2-6)Gal(b1-4)GlcNAc(b1-6)]Gal(b1-4)Glc
Method in brief: as §1

[15] = target: Fuc(a1-2)Gal3S(b1-4)GlcNAc
Method in brief: as §1

[16] = target: Fuc(a1-2)Gal6S(b1-3)GlcNAc
Method in brief: as §1

[17] = target: Fuc(a1-2)Gal6S(b1-3)GlcNAc6S
Method in brief: as §1

Fuc(a1-2)Gal6S(b1-4)Glc = target: Fuc(a1-2)Gal6S(b1-4)Glc
Method in brief: as §1

[18] = target: Fuc(a1-2)Gal6S(b1-4)Glc6S
Method in brief: as §1

Fuc(a1-2)[Gal(a1-3)]Gal = target: Fuc(a1-2)[Gal(a1-3)]Gal
Method in brief: as §1

[19] = target: Fuc(a1-2)[Gal(a1-3)]Gal(b1-3)GalNAc
Method in brief: as §1

[20] = target: Fuc(a1-2)[Gal(a1-3)]Gal(b1-3)GalNAc(b1-3)Gal(a1-4)Gal(b1-4)Glc
Method in brief: as §1

[21] = target: Fuc(a1-2)[Gal(a1-3)]Gal(b1-3)GlcNAc
Method in brief: as §1

[22] = target: Fuc(a1-2)[Gal(a1-3)]Gal(b1-3)GlcNAc(b1-2)Man(a1-3)[Fuc(a1-2)[Gal(a1-3)]Gal(b1-3)GlcNAc(b1-2)Man(a1-6)]Man(b1-4)GlcNAc(b1-4)GlcNAc
Method in brief: as §1

[23] = target: Fuc(a1-2)[Gal(a1-3)]Gal(b1-3)GlcNAc(b1-2)Man(a1-3)[Fuc(a1-2)[Gal(a1-3)]Gal(b1-3)GlcNAc(b1-2)Man(a1-6)]Man(b1-4)GlcNAc(b1-4)[Fuc(a1-6)]GlcNAc
Method in brief: as §1

[24] = target: Fuc(a1-2)[Gal(a1-3)]Gal(b1-3)GlcNAc(b1-3)GalNAc
Method in brief: as §1

[25] = target: Fuc(a1-2)[Gal(a1-3)]Gal(b1-3)GlcNAc(b1-6)GalNAc
Method in brief: as §1

[26] = target: Fuc(a1-2)[Gal(a1-3)]Gal(b1-4)Glc
Method in brief: as §1

[27] = target: Fuc(a1-2)[Gal(a1-3)]Gal(b1-4)GlcNAc
Method in brief: as §1

[28] = target: Fuc(a1-2)[Gal(a1-3)]Gal(b1-4)GlcNAc(b1-2)Man
Method in brief: as §1

[29] = target: Fuc(a1-2)[Gal(a1-3)]Gal(b1-4)GlcNAc(b1-2)Man(a1-3)[Fuc(a1-2)[Gal(a1-3)]Gal(b1-4)GlcNAc(b1-2)Man(a1-6)]Man(b1-4)GlcNAc(b1-4)GlcNAc
Method in brief: as §1

[30] = target: Fuc(a1-2)[Gal(a1-3)]Gal(b1-4)GlcNAc(b1-2)Man(a1-3)[Fuc(a1-2)[Gal(a1-3)]Gal(b1-4)GlcNAc(b1-2)Man(a1-6)]Man(b1-4)GlcNAc(b1-4)[Fuc(a1-6)]GlcNAc
Method in brief: as §1

[31] = target: Fuc(a1-2)[Gal(a1-3)]Gal(b1-4)GlcNAc(b1-3)GalNAc
Method in brief: as §1

[32] = target: Fuc(a1-2)[Gal(a1-3)]Gal(b1-4)GlcNAc(b1-6)GalNAc
Method in brief: as §1

[33] = target: Fuc(a1-2)[Gal(a1-3)]Gal(b1-4)[Fuc(a1-3)]Glc
Method in brief: as §1

[34] = target: Fuc(a1-2)[Gal(a1-3)]Gal(b1-4)[Fuc(a1-3)]GlcNAc
Method in brief: as §1

[35] = target: Fuc(a1-2)[Gal(a1-3)]Gal(b1-4)[Fuc(a1-3)]GlcNAc(b1-3)GalNAc
Method in brief: as §1

[36] = target: Fuc(a1-2)[Gal(a1-4)]Gal(b1-4)GlcNAc
Method in brief: as §1

[37] = target: Fuc(a1-2)[GalNAc(a1-3)]Gal
Method in brief: as §1

[38] = target: Fuc(a1-2)[GalNAc(a1-3)]Gal(b1-3)GalNAc(a1-3)[Fuc(a1-2)]Gal(b1-4)GlcNAc
Method in brief: as §1

[39] = target: Fuc(a1-2)[GalNAc(a1-3)]Gal(b1-3)GalNAc(b1-3)Gal(a1-4)Gal(b1-4)Glc
Method in brief: as §1

[40] = target: Fuc(a1-2)[GalNAc(a1-3)]Gal(b1-3)GlcNAc
Method in brief: as §1

[41] = target: Fuc(a1-2)[GalNAc(a1-3)]Gal(b1-3)GlcNAc(b1-2)Man(a1-3)[Fuc(a1-2)[GalNAc(a1-3)]Gal(b1-3)GlcNAc(b1-2)Man(a1-6)]Man(b1-4)GlcNAc(b1-4)GlcNAc
Method in brief: as §1

[42] = target: Fuc(a1-2)[GalNAc(a1-3)]Gal(b1-3)GlcNAc(b1-2)Man(a1-3)[Fuc(a1-2)[GalNAc(a1-3)]Gal(b1-3)GlcNAc(b1-2)Man(a1-6)]Man(b1-4)GlcNAc(b1-4)[Fuc(a1-6)]GlcNAc
Method in brief: as §1

[43] = target: Fuc(a1-2)[GalNAc(a1-3)]Gal(b1-3)GlcNAc(b1-3)GalNAc
Method in brief: as §1

B1: Langerin K299A/K313A (Homo sapiens), Q9UJ71 (protein)
chain: STLNAQIPELKSDLEKASALNTKIRALQGSLENMSKLLKRQNDILQVVSQGWKYFKGNFYYFSLIPKTWYSAEQFCVSRNSHLTSVTSESEQEFLYKTAGGLIYWIGLTKAGMEGDWSWVDDTPFNKVQSARFWIPGEPNNAGNNEHCGNIAAPSLQAWNDAPCDATFLFICKRPYVPSEP
Q: For B1, which “glycan array binding signal (z-score)” value [1] is on record?
A: 0.798

Q: And the “glycan array binding signal (z-score)” value [2]?
A: 0.332

Q: And the “glycan array binding signal (z-score)” value [3]?
A: 0.147

Q: What about the “glycan array binding signal (z-score)” value [4] of the same binder?
A: 1.58

Q: And the “glycan array binding signal (z-score)” value [5]?
A: -1.06

Q: What about the “glycan array binding signal (z-score)” value [6] of the same binder?
A: 1.66

Q: What about the “glycan array binding signal (z-score)” value [7] of the same binder?
A: -0.822

Q: And the “glycan array binding signal (z-score)” value [8]?
A: -0.172

Q: What about the “glycan array binding signal (z-score)” value [9] of the same binder?
A: 0.769

Q: What about the “glycan array binding signal (z-score)” value [10] of the same binder?
A: 2.43

Q: And the “glycan array binding signal (z-score)” value [11]?
A: -1.13

Q: And the “glycan array binding signal (z-score)” value [12]?
A: -0.476

Q: What about the “glycan array binding signal (z-score)” value [13] of the same binder?
A: 0.849

Q: And the “glycan array binding signal (z-score)” value [14]?
A: 0.735

Q: What about the “glycan array binding signal (z-score)” value [15] of the same binder?
A: -0.352

Q: And the “glycan array binding signal (z-score)” value [16]?
A: -0.418

Q: And the “glycan array binding signal (z-score)” value [17]?
A: 0.002

Q: And the “glycan array binding signal (z-score)” value (Fuc(a1-2)Gal6S(b1-4)Glc)?
A: 0.031

Q: And the “glycan array binding signal (z-score)” value [18]?
A: -0.734

Q: And the “glycan array binding signal (z-score)” value (Fuc(a1-2)[Gal(a1-3)]Gal)?
A: -0.006

Q: And the “glycan array binding signal (z-score)” value [19]?
A: -0.182

Q: What about the “glycan array binding signal (z-score)” value [20] of the same binder?
A: -0.015

Q: And the “glycan array binding signal (z-score)” value [21]?
A: -0.307

Q: And the “glycan array binding signal (z-score)” value [22]?
A: -0.389

Q: And the “glycan array binding signal (z-score)” value [23]?
A: 0.747

Q: What about the “glycan array binding signal (z-score)” value [24] of the same binder?
A: -0.631

Q: And the “glycan array binding signal (z-score)” value [25]?
A: -0.614

Q: And the “glycan array binding signal (z-score)” value [26]?
A: -0.342

Q: What about the “glycan array binding signal (z-score)” value [27] of the same binder?
A: -0.041

Q: What about the “glycan array binding signal (z-score)” value [28] of the same binder?
A: -0.95

Q: And the “glycan array binding signal (z-score)” value [29]?
A: -0.45

Q: What about the “glycan array binding signal (z-score)” value [30] of the same binder?
A: -0.269

Q: What about the “glycan array binding signal (z-score)” value [31] of the same binder?
A: 0.287

Q: What about the “glycan array binding signal (z-score)” value [32] of the same binder?
A: -0.156

Q: What about the “glycan array binding signal (z-score)” value [33] of the same binder?
A: -1.11

Q: And the “glycan array binding signal (z-score)” value [34]?
A: 1.51

Q: And the “glycan array binding signal (z-score)” value [35]?
A: 1.86

Q: What about the “glycan array binding signal (z-score)” value [36] of the same binder?
A: -1.07

Q: What about the “glycan array binding signal (z-score)” value [37] of the same binder?
A: -0.712

Q: What about the “glycan array binding signal (z-score)” value [38] of the same binder?
A: -0.393

Q: What about the “glycan array binding signal (z-score)” value [39] of the same binder?
A: -0.842

Q: And the “glycan array binding signal (z-score)” value [40]?
A: -0.289

Q: And the “glycan array binding signal (z-score)” value [41]?
A: 0.327

Q: What about the “glycan array binding signal (z-score)” value [42] of the same binder?
A: -0.096

Q: And the “glycan array binding signal (z-score)” value [43]?
A: 2.17
